From the supplement of paper PMC10849652
The other results are listed elsewhere or left out.

Chains of the proteins cited; added tags and fusions are not shown. Lines headed by an entry give the natural chain unless they say otherwise; changes in a name come on top.
UniProt Q9H2H8: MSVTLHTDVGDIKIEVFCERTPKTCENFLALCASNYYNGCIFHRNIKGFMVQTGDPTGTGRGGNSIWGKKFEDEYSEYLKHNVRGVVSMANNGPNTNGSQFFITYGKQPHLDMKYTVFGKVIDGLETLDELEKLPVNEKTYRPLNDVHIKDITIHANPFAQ
UniProt P29590: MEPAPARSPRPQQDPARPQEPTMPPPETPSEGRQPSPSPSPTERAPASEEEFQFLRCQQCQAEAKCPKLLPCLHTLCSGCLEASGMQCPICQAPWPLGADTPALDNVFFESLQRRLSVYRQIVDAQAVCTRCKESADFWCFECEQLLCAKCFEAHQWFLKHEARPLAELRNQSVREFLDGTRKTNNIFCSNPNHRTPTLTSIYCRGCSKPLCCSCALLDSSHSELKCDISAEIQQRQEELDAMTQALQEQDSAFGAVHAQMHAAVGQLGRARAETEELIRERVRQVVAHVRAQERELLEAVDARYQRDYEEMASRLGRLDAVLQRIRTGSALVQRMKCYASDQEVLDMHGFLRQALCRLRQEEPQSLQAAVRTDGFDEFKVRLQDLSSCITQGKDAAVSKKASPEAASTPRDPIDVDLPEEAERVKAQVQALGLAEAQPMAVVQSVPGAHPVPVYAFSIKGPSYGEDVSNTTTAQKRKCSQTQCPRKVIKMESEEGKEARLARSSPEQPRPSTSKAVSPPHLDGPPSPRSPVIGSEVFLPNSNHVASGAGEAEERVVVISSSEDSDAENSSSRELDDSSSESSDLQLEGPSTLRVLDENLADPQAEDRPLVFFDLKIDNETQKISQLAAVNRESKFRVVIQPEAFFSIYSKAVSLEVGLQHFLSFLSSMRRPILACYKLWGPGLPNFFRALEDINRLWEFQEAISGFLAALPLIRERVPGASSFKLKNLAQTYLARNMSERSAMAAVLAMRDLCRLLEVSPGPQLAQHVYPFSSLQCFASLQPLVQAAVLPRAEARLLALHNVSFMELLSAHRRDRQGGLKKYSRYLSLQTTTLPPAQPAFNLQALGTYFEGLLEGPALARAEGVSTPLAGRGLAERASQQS
UniProt P56282: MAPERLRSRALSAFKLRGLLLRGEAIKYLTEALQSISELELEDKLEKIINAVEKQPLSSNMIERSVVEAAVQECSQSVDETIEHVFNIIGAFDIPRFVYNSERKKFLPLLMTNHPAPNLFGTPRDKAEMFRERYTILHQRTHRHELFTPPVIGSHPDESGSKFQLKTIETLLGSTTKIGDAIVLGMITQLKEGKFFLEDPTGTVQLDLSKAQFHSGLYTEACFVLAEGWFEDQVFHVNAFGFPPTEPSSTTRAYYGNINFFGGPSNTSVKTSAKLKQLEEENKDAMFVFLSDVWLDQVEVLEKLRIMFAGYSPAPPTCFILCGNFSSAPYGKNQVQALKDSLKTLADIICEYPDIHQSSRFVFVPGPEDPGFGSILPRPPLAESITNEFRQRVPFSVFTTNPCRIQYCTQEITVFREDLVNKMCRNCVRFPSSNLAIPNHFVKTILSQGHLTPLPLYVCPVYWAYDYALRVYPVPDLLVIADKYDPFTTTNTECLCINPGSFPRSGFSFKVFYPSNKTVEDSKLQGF
UniProt Q9BT43: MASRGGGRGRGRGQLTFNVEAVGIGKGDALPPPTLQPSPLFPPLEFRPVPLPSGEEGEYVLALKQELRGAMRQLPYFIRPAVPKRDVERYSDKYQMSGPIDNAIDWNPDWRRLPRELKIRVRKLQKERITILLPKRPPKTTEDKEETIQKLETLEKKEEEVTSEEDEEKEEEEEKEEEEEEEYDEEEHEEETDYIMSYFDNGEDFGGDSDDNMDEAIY
UniProt P0DPB5: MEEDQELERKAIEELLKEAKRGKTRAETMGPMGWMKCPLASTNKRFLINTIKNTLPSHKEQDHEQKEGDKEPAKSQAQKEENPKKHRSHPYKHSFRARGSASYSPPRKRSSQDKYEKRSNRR
UniProt Q9Y6A1: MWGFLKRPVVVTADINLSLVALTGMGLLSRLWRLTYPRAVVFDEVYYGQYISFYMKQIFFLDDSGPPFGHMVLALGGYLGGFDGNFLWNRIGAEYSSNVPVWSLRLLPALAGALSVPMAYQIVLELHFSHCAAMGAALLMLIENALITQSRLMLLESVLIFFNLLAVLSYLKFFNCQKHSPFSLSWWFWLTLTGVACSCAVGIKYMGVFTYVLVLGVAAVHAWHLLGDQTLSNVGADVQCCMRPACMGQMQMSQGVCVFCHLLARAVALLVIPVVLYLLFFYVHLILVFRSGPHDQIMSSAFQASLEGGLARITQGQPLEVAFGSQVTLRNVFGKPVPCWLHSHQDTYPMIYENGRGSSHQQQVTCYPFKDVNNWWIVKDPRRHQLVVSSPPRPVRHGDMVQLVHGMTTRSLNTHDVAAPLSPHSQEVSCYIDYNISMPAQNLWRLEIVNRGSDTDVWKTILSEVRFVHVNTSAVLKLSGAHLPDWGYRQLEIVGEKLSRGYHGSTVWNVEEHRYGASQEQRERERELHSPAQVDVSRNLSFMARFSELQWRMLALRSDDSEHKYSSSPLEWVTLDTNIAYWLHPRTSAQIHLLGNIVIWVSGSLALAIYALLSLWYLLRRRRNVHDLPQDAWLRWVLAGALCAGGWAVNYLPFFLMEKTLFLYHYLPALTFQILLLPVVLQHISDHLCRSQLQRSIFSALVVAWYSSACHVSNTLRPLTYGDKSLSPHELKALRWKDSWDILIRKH
UniProt O00592: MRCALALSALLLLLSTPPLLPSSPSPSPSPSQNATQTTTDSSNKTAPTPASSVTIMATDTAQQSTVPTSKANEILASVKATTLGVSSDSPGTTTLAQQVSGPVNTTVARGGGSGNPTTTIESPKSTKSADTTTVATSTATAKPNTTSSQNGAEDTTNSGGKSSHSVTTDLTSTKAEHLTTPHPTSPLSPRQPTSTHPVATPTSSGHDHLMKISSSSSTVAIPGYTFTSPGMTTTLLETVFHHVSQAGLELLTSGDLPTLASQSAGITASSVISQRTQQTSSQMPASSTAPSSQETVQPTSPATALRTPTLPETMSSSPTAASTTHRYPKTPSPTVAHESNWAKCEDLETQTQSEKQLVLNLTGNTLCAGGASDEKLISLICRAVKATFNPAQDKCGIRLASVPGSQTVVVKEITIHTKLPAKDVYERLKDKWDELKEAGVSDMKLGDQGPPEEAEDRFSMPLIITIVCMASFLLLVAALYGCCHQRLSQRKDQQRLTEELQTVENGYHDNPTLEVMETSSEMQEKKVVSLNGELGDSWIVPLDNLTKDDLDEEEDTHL
UniProt O43157, whole entry, looked up: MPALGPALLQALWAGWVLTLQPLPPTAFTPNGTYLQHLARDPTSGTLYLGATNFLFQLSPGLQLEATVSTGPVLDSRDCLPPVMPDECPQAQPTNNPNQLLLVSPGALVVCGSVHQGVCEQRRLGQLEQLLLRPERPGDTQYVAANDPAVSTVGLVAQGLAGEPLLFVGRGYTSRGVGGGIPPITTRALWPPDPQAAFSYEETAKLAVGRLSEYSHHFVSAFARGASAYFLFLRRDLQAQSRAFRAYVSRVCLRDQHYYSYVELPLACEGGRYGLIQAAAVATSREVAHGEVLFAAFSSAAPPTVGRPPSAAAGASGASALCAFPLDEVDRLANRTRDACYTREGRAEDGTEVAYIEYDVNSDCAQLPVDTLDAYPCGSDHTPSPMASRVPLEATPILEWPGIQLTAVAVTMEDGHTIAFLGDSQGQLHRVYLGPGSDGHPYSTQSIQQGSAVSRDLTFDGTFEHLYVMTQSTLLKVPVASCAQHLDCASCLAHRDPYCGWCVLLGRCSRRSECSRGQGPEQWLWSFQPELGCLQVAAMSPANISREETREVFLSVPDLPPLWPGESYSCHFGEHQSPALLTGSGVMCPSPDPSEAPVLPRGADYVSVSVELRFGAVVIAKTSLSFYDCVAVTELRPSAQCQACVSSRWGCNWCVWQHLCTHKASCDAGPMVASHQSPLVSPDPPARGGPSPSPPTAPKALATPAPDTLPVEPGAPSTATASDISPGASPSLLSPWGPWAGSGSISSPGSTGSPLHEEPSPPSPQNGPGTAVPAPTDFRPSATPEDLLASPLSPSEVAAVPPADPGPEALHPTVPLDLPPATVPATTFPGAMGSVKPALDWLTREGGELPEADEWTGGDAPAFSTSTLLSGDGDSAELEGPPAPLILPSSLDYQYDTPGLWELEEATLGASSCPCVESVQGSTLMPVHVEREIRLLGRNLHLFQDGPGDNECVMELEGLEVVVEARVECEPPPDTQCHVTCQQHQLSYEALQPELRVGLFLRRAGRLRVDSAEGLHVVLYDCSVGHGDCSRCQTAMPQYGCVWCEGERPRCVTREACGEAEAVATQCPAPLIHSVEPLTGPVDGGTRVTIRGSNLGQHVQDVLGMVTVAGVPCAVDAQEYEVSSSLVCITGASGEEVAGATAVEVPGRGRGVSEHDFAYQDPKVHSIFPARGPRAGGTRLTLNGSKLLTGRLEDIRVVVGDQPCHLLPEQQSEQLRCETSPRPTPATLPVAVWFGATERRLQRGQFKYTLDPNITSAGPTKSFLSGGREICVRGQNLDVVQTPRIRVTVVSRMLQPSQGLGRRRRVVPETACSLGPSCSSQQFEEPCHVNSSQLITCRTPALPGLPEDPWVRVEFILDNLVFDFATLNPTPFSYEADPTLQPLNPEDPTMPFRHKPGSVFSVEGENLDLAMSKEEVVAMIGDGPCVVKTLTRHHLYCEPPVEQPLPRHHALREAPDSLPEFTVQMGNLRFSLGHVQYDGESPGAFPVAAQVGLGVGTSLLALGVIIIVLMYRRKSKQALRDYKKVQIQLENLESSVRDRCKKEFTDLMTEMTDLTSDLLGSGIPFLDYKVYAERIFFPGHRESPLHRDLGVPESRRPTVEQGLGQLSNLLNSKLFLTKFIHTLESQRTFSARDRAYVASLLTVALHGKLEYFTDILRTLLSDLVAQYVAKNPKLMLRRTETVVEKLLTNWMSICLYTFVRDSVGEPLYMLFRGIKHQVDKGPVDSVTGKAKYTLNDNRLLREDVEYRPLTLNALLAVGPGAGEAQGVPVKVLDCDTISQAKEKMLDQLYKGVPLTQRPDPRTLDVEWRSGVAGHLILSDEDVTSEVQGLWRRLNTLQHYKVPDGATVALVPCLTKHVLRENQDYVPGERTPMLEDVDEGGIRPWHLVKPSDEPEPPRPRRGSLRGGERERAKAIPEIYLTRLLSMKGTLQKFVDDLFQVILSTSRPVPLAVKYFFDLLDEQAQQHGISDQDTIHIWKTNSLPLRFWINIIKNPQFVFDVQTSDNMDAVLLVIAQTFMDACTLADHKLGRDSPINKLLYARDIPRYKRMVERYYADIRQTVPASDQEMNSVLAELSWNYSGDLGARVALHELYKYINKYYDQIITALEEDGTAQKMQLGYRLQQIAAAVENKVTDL
UniProt O75145: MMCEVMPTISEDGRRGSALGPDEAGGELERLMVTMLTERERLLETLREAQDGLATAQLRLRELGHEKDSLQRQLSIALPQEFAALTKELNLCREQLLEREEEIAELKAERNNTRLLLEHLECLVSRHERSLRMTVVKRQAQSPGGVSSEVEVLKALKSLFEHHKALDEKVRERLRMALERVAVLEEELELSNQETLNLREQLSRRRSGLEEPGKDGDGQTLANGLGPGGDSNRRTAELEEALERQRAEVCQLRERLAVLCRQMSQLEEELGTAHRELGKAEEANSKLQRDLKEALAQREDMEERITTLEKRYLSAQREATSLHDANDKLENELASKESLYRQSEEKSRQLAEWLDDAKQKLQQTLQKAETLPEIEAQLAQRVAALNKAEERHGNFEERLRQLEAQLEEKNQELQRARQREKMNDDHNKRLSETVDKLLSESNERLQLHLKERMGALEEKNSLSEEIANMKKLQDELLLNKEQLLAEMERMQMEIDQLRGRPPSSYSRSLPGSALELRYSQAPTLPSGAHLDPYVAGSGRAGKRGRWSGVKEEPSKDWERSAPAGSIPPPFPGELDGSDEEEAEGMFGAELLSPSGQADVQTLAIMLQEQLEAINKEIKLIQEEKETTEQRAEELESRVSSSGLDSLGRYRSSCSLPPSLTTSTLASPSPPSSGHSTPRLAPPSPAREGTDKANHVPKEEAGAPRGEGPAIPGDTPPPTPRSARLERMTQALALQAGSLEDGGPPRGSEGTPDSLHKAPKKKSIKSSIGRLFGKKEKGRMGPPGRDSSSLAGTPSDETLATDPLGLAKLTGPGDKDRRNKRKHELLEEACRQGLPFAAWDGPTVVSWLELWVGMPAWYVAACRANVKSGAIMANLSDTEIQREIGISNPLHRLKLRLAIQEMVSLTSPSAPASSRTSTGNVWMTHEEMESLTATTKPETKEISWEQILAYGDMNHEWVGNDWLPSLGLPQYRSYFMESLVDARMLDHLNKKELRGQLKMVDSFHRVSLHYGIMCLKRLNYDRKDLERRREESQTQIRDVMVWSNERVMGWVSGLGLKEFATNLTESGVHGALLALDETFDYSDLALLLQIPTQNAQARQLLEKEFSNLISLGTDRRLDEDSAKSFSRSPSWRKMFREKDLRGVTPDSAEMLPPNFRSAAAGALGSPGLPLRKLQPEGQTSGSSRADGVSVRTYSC

What was measured:
Assay in all cases: log2 fold change, soluble protein after heating vs DMSO (PISA); higher = thermal stabilisation; K562 cells, 10 uM, 30 min; active = over 0.2 and 3.5 SD of the protein, either way, in both replicates (recomputed)
saracatinib = compound: CN1CCN(CCOc2cc(OC3CCOCC3)c3c(Nc4c(Cl)ccc5c4OCO5)ncnc3c2)CC1 [saracatinib]
How it was run: (§1)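 Quantification of soluble protein used TMTpro 16plex LC-MS/MS, with channel sums equalised. Samples were the supernatant after 21,000xg for 90 min of pooled aliquots from K562 cells (2×10^6 cells/mL) treated with 10 μM compound for 30 min, heated for 3 min over 48°C-58°C, and extracted in PBS with 0.5% NP-40 at 4°C. Values, from duplicates, describe thermal stability against control samples on a log2 fold-change scale.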

sotrastaurin = compound: CN1CCN(c2nc(C3=C(c4c[nH]c5ccccc45)C(=O)NC3=O)c3ccccc3n2)CC1 [sotrastaurin]
How it was run: as §1

Tubastatin A = compound: CN1CCc2c(c3ccccc3n2Cc2ccc(C(=O)NO)cc2)C1 [Tubastatin A]
How it was run: as §1

[1] = compound: CNC(=O)C1=CC=CC=C1NC2=NC(=NC=C2Cl)NC3=C(C=C(C=C3)N4CCOCC4)OC
How it was run: as §1

defactinib = compound: CNC(=O)c1ccc(Nc2ncc(C(F)(F)F)c(NCc3nccnc3N(C)S(C)(=O)=O)n2)cc1 [defactinib]
How it was run: as §1

rucaparib = compound: CNCc1ccc(-c2[nH]c3cc(F)cc4c3c2CCNC4=O)cc1 [rucaparib]
How it was run: as §1

[2] = compound: CNc1nc(-c2ccc3c(N)n[nH]c3c2)cc(N2C[C@@H](C(=O)NC3CCCCC3)CC[C@H]2C)n1
How it was run: as §1

encorafenib = compound: COC(=O)N[C@@H](C)CNc1nccc(-c2cn(C(C)C)nc2-c2cc(Cl)cc(NS(C)(=O)=O)c2F)n1 [encorafenib]
How it was run: as §1

[3] = compound: COC(=O)[C@H](CCSC)NC(=O)C1=C(C=C(C=C1)NC[C@H](CS)N)C2=CC=CC=C2
How it was run: as §1

[4] = compound: COC1=CC=C(C=C1)CN2C=CC3=C2C=C(C=C3)C(=O)NO
How it was run: as §1

filanesib = compound: CON(C)C(=O)N1N=C(c2cc(F)ccc2F)S[C@@]1(CCCN)c1ccccc1 [filanesib]
How it was run: as §1

zotarolimus = compound: CO[C@H]1C[C@@H]2CC[C@@H](C)[C@@](O)(O2)C(=O)C(=O)N2CCCC[C@H]2C(=O)O[C@H]([C@H](C)C[C@@H]2CC[C@H](n3cnnn3)[C@H](OC)C2)CC(=O)[C@H](C)/C=C(\C)[C@@H](O)[C@@H](OC)C(=O)[C@H](C)C[C@H](C)/C=C/C=C/C=C/1C [zotarolimus]
How it was run: as §1

idasanutlin = compound: COc1cc(C(=O)O)ccc1NC(=O)[C@@H]1N[C@@H](CC(C)(C)C)[C@](C#N)(c2ccc(Cl)cc2F)[C@H]1c1cccc(Cl)c1F [idasanutlin]
How it was run: as §1

alisertib = compound: COc1cc(Nc2ncc3c(n2)-c2ccc(Cl)cc2C(c2c(F)cccc2OC)=NC3)ccc1C(=O)O [alisertib]
How it was run: as §1

[5] = compound: COc1cc2nc(-c3cc(F)ccc3O)nc(N[C@@H]3CNC[C@H]3C(C)(C)O)c2cc1OC
How it was run: as §1

gefitinib = compound: COc1cc2ncnc(Nc3ccc(F)c(Cl)c3)c2cc1OCCCN1CCOCC1 [gefitinib]
How it was run: as §1

[6] = compound: COc1cccc2cc(-c3nc([C@H]4CC[C@H](C(=O)O)CC4)n4ncnc(N)c34)[nH]c12
How it was run: as §1

lapatinib = compound: CS(=O)(=O)CCNCc1ccc(-c2ccc3ncnc(Nc4ccc(OCc5cccc(F)c5)c(Cl)c4)c3c2)o1 [lapatinib]
How it was run: as §1

pictilisib = compound: CS(=O)(=O)N1CCN(Cc2cc3nc(-c4cccc5[nH]ncc45)nc(N4CCOCC4)c3s2)CC1 [pictilisib]
How it was run: as §1

alvocidib = compound: CN1CC[C@H](c2c(O)cc(O)c3c(=O)cc(-c4ccccc4Cl)oc23)[C@H](O)C1 [alvocidib]
How it was run: as §1

Measured: log2 fold change

POGLUT1 (UniProt Q8NBL1)
inactive: saracatinib -0.124 | sotrastaurin 0 | Tubastatin A 0.009 | [1] -0.004 | defactinib 0.039 | rucaparib 0.069 | [2] -0.063 | encorafenib 0.015 | [3] 0.042 | [4] -0.086 | filanesib 0.076 | zotarolimus -0.004 | idasanutlin 0.114 | alisertib -0.051 | [5] 0.035 | gefitinib -0.046 | [6] -0.132 | lapatinib 0.036 | pictilisib -0.099

PPIL3 isoform 2 (UniProt Q9H2H8)
inactive: saracatinib 0.034 | sotrastaurin -0.082 | Tubastatin A 0.018 | [1] -0.031 | defactinib -0.017 | rucaparib -0.031 | [2] -0.042 | encorafenib -0.034 | [3] -0.074 | [4] 0.301 | filanesib 0.027 | idasanutlin 0.124 | [5] 0.206 | gefitinib -0.12 | lapatinib 0.003 | pictilisib 0.032

POLR2K (UniProt P53803)
inactive: saracatinib -0.024 | sotrastaurin 0.032 | Tubastatin A -0.031 | [1] -0.057 | defactinib 0.034 | rucaparib 0.039 | [2] -0.047 | encorafenib -0.174 | [3] -0.063 | [4] -0.052 | filanesib 0.071 | zotarolimus -0.05 | idasanutlin -0.101 | alisertib -0.005 | [5] 0.134 | gefitinib -0.012 | [6] -0.213 | lapatinib 0.003 | pictilisib 0.117

PML (UniProt P29590)
inactive: saracatinib -0.001 | sotrastaurin -0.038 | Tubastatin A -0.051 | [1] 0.024 | defactinib -0.053 | rucaparib -0.008 | [2] -0.031 | encorafenib 0.005 | [3] 0 | [4] -0.043 | filanesib 0.014 | zotarolimus 0.041 | idasanutlin 0.003 | alisertib -0.022 | [5] -0.026 | gefitinib -0.015 | [6] -0.081 | lapatinib 0.024 | pictilisib 0.119

POLE2 (UniProt P56282)
inactive: [4] -0.114 | pictilisib 0.086

PMS2CL (UniProt Q68D20)
inactive: alisertib -0.254 | gefitinib 0.033 | [6] -0.099

POLR2J (UniProt P52435)
inactive: saracatinib -0.025 | alvocidib -0.139 | [1] 0.017 | rucaparib 0.083 | [2] -0.332 | encorafenib -0.014 | zotarolimus -0.108 | idasanutlin -0.148 | alisertib 0.642 | gefitinib 0.001 | [6] -0.026 | pictilisib 0.006

POM121C (UniProt A8CG34)
inactive: sotrastaurin -0.204 | [1] 0.01 | [4] 0.023 | filanesib 0.024 | idasanutlin 0.487 | alisertib 0.198 | gefitinib 0.135 | [6] 0.165

POLR3GL (UniProt Q9BT43)
inactive: sotrastaurin -0.155 | filanesib 0.024 | alisertib 0.021 | [6] 0.111

POLR1D (UniProt P0DPB5)
inactive: sotrastaurin 0.118 | alvocidib 0.216 | Tubastatin A 0.051 | [1] -0.067 | rucaparib 0.123 | encorafenib 0.01 | [4] -0.197 | filanesib 0.262 | zotarolimus -0.053 | idasanutlin 0.03 | [5] -0.456 | lapatinib 0.331 | pictilisib -0.026

POMT1 (UniProt Q9Y6A1)
inactive: saracatinib -0.014 | Tubastatin A -0.035 | [1] 0.064 | defactinib -0.004 | [2] 0.031 | [3] 0.009 | [4] -0.393 | idasanutlin 0.124 | alisertib 0.068 | [6] 0.133

PODXL (UniProt O00592)
inactive: pictilisib 0.865

PLXNB1 (UniProt O43157)
inactive: sotrastaurin 0.085 | filanesib 0.076 | idasanutlin -0.17

PLEKHJ1 (UniProt Q9NW61)
inactive: saracatinib -0.095 | alvocidib 0.026 | [2] 0.179 | zotarolimus 0.039 | [5] -0.089 | lapatinib -0.076

Quoted from the listing (3 entries):
PODXL (UniProt O00592)
inactive: pictilisib 0.865

PLXNB1 (UniProt O43157)
inactive: sotrastaurin 0.085 | filanesib 0.076 | idasanutlin -0.17

PLEKHJ1 (UniProt Q9NW61)
inactive: saracatinib -0.095 | alvocidib 0.026 | [2] 0.179 | zotarolimus 0.039 | [5] -0.089 | lapatinib -0.076

Additional results

PPFIA3 (UniProt O75145)
inactive: alvocidib 0 | zotarolimus -0.01

POLD4 (UniProt Q9HCU8)
inactive: saracatinib 0.081 | alvocidib -0.195 | Tubastatin A 0.05 | rucaparib 0.227 | [2] -0.026 | encorafenib 0.031 | [4] -0.094 | zotarolimus 0.045 | idasanutlin 0.016 | alisertib -0.033 | [5] -0.01 | gefitinib -0.017 | [6] -0.05 | lapatinib 0.095 | pictilisib 0.169
